Experimental data reported in PMC11406046.
These are yes or no findings as the source states them, for the method shown. Binding seen in cells or lysates may run through a third protein. Some entries that bind do so weakly or less than the wild type. Blank lines part the entries; values can stand above or below the substance they belong to.

Sequences of proteins named here, by UniProt entry; tags and fusion partners are left off.
UniProt Q15327: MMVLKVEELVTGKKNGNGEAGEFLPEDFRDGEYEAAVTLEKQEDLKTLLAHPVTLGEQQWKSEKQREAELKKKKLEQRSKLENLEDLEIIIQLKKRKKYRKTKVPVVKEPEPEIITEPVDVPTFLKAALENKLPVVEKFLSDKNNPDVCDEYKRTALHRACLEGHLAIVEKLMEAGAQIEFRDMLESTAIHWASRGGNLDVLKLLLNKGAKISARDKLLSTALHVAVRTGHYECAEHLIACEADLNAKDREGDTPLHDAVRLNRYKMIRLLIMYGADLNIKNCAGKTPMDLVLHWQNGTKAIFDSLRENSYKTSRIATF
UniProt Q9CR42: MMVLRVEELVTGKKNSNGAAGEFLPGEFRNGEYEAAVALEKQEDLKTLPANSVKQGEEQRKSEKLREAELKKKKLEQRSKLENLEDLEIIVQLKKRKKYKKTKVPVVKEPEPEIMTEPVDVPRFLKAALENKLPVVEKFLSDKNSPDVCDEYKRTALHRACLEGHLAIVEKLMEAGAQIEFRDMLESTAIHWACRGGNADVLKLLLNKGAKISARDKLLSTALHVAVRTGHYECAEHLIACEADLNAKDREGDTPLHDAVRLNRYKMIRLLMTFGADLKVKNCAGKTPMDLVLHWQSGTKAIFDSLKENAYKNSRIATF
UniProt Q61510: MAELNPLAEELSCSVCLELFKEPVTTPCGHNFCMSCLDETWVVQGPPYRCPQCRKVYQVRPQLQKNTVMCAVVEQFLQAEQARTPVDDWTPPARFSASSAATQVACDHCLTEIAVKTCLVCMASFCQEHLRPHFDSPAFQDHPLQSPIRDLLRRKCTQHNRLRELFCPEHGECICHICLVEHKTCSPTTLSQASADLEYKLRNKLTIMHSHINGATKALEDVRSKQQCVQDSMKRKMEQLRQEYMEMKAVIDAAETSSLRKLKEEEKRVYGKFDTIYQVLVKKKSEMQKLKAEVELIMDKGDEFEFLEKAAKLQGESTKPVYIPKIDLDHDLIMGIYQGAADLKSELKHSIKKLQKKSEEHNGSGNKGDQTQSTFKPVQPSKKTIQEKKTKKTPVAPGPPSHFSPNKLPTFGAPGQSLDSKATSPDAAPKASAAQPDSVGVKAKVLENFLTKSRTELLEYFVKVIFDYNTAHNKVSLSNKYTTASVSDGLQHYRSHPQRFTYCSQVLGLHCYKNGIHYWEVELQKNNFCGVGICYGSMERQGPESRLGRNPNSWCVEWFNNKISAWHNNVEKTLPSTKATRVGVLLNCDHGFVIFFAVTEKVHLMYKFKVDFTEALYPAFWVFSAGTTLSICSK
UniProt O95573: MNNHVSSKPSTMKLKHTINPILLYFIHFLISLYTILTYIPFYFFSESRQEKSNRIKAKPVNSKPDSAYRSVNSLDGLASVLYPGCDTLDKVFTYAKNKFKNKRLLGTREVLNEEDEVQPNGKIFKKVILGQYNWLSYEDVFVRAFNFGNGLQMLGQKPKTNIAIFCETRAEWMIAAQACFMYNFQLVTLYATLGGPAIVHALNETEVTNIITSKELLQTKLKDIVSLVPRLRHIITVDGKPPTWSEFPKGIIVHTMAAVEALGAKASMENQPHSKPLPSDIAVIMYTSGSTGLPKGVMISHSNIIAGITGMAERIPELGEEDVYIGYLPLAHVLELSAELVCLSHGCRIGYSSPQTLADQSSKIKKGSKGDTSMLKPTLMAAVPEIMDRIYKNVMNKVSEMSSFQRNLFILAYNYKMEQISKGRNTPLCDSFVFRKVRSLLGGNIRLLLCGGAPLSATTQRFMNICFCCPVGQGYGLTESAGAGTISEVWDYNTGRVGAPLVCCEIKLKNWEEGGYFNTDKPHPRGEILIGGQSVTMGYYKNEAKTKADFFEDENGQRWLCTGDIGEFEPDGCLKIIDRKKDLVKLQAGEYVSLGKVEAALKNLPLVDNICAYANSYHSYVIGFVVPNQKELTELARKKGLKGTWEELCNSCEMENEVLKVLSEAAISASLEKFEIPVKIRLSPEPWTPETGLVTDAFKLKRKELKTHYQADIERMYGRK
UniProt Q14258: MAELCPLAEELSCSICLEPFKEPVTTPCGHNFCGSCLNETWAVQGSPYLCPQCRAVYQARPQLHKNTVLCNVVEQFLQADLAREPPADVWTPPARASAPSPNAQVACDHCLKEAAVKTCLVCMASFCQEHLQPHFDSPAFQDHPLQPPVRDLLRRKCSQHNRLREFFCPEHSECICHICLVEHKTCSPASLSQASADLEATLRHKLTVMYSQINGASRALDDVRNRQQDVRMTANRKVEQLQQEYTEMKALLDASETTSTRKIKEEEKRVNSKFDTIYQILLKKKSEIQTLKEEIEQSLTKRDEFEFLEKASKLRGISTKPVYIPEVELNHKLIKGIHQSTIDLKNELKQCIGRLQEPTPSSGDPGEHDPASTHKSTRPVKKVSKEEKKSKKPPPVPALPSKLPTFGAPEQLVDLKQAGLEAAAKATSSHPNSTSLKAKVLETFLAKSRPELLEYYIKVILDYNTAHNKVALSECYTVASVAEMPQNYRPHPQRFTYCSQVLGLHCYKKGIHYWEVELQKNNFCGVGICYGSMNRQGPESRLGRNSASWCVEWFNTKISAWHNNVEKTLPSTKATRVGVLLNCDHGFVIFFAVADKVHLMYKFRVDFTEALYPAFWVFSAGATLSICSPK
UniProt Q9CZW4: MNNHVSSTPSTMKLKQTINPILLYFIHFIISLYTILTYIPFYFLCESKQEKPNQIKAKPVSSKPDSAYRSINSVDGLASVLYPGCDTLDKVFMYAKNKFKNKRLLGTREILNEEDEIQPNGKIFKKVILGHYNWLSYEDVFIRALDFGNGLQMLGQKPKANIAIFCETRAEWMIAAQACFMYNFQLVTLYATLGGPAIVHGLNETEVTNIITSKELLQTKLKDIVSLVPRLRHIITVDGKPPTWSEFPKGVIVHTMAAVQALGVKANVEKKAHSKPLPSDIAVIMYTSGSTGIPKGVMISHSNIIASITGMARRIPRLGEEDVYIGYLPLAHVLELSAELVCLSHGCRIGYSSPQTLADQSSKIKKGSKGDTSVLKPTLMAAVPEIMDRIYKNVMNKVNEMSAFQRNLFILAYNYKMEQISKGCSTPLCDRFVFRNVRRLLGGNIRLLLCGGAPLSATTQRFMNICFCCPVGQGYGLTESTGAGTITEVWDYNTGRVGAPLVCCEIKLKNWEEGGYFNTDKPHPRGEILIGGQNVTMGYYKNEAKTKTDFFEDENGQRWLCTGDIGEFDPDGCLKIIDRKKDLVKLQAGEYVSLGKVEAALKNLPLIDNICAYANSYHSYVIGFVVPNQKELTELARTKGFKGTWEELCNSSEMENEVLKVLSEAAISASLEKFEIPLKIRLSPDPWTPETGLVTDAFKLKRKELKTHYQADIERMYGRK

Experiments:
[1] = target: ANKRD1 (ankyrin repeat domain 1), endogenous in HK-2 cells (human (endogenous in HK-2)) (UniProt Q15327); assay: co-IP; endogenous proteins; lysates of HK-2 cells stimulated with 500 µM H2O2 or H/R; IP with ANKRD1 or ACSL3 antibody, control IgG; immunoblot
[2] = target: ANKRD1 (ankyrin repeat domain 1), endogenous in HK-2 cells (human (endogenous in HK-2)) (UniProt Q15327); assay: proximity ligation; HK-2 cells, untreated and H2O2-treated
[3] = target: ANKRD1, endogenous in mouse kidney (mouse (endogenous in kidney)) (UniProt Q9CR42); assay: co-IP; endogenous proteins; I/R-treated mouse renal tissue lysates; IP with ANKRD1 or ACSL3 antibody, control IgG; immunoblot
[4] = target: TRIM25, endogenous in mouse kidney (mouse (endogenous in kidney)) (UniProt Q61510); assay: co-IP; endogenous proteins; mouse kidneys of the sham and the I/R group; ANKRD1 and ACSL3 bound to the same quantity of TRIM25
[5] = target: ACSL3 (acyl-coenzyme A synthetase long-chain family member 3), endogenous in HK-2 cells (human (endogenous in HK-2)) (UniProt O95573); assay: co-IP; endogenous proteins; lysates of HK-2 cells stimulated with 500 µM H2O2 or H/R; IP with ANKRD1 or ACSL3 antibody, control IgG; immunoblot
[6] = target: TRIM25 (tripartite motif containing 25), endogenous in HK-2 cells (human (endogenous in HK-2)) (UniProt Q14258); assay: proximity ligation; HK-2 cells, untreated and H2O2-treated
[7] = target: ACSL3, endogenous in mouse kidney (mouse (endogenous in kidney)) (UniProt Q9CZW4); assay: co-IP; endogenous proteins; I/R-treated mouse renal tissue lysates; IP with ANKRD1 or ACSL3 antibody, control IgG; immunoblot
[8] = target: Myc-tagged TRIM25 (tripartite motif containing 25), exogenous (UniProt Q14258); assay: co-IP; exogenous TRIM25 with ANKRD1 or ACSL3 in HK-2 and HEK 293T cells
[9] = target: FLAG-tagged ANKRD1 (ankyrin repeat domain 1), wild type (human) (UniProt Q15327); assay: co-IP; FLAG-ANKRD1 and His-ACSL3 plasmids co-transfected into HK-2 and HEK 293T cells

- binding [1]: binds
- binding [2]: binds
Substance: ACSL3 (acyl-coenzyme A synthetase long-chain family member 3), endogenous in HK-2 cells (from UniProt O95573 1-720)

- binding [3]: binds
- binding [4]: binds
Substance: ACSL3, endogenous in mouse kidney (from UniProt Q9CZW4 1-720)

- binding [5]: binds
- binding [6]: binds
Substance: ANKRD1 (ankyrin repeat domain 1), endogenous in HK-2 cells (from UniProt Q15327 1-319)

- binding [7]: binds
- binding [4]: binds
Substance: ANKRD1, endogenous in mouse kidney (from UniProt Q9CR42 1-319)

- binding [8]: binds
Substance: FLAG-tagged ANKRD1 (ankyrin repeat domain 1), wild type (from UniProt Q15327 1-319)

- binding [9]: binds
Substance: His-tagged ACSL3 (acyl-coenzyme A synthetase long-chain family member 3) (from UniProt O95573 1-720)
